The assay concerns the target EVL (Ena/VASP-like protein), endogenous (mouse (endogenous in primary cortical neurons)) (UniProt P70429). In words: affinity purification with mass spectrometry.

Sequences of proteins named here, by UniProt entry; tags and fusion partners are left off.
UniProt P70429: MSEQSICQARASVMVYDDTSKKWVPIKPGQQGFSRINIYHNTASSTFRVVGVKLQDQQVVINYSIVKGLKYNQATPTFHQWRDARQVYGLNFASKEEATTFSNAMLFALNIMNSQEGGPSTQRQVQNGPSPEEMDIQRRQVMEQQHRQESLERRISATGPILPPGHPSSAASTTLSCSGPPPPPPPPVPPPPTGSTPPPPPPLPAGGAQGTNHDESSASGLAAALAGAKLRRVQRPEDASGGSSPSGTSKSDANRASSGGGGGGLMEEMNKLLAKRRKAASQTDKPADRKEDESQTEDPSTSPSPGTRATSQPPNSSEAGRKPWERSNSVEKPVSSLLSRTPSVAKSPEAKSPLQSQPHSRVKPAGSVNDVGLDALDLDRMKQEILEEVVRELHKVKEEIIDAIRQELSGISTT

Drawing on article doi:10.1101/2021.05.26.444586, this text covers binding for one molecule.

Results are given in words; binding and its absence hold for the method and conditions named. In cells and extracts the contact can be indirect. These calls come from enrichment with a bait or labelling near it, and not all partners need be listed.

B1: MIM/MTSS1, endogenous (protein, UniProt Q8R1S4 1-759)
chain: MEAVIEKECSALGGLFQTIISDMKGSYPVWEDFINKAGKLQSQLRTTVVAAAAFLDAFQKVADMATNTRGGTREIGSALTRMCMRHRSIEAKLRQFSSALIDCLINPLQEQMEEWKKVANQLDKDHAKEYKKARQEIKNKSSDTLKLQKKAKKVDAQGRGDIQPQLDSALQDVNDKYLLLEETEKQAVRKALIEERGRFCTFISMLRPVIEEEISMLGEITHLQTISEDLKSLTMDPHKLPSSSEQVILDLKGSDYSWSYQTPPSSPSTTMSRKSSVCSSLNSVNSSDSRSSGSHSHSPSSHYRYRSSNLAQQAPVRLSSVSSHDSGFISQDAFQSKSPSPMPPEAANQLSNGFSHCSLSSESHAGPVGAGPFPHCLPASRLLPRVTSVHLPDYAHYYTIGPGMFPSSQIPSWKDWAKPGPYDQPLVNTLQRRKEKREPDSNGGGPTTTGGPPAGAEEAQRPRSMTVSAATRPGEEMAACEELTLALSRGLQLDVQRSSRDSLQCSSGYSTQTTTPCCSEDTIPSQVSDYDYFSVSGDQEAEQQEFDKSSTIPRNSDISQSYRRMFQAKRPASTAGLPTTLGPAMVTPGVATIRRTPSTKPSVRRGTIGAGPIPIKTPVIPVKTPTVPDLPGVLPSPPDGPEERGEHSPESPSAGEGPQGVSNIPSSLWSGQAPVNPPLPGPKPSIPEEHRQAIPESEAEDQERDPPSATVSPGPIPESDPADLSPRESPQGEDMLNAIRRGVKLKKTTTNDRSAPRFS
In the case of B1, the binding entry is recorded as “binds”.
